This data set is described as follows: FusC ELISA of urine and sera, animal model of invasive pulmonary aspergillosis. The class given is in vivo, Guinea pig. The settings on record: for earliest detection in urine post-infection: some samples.
[1] abbreviates: immunocompromised guinea pigs inoculated with A. fumigatus.

SMILES strings stand for the structures.

For the molecule `C/C1=C/C(=O)N(O)CCCC(N)C(=O)OCC/C(C)=C\C(=O)N(O)CCCC(N)C(=O)OCC/C(C)=C\C(=O)N(O)CCCC(N)C(=O)OCC1` (stereo not shown) [FusC, fusarinine C], the “earliest detection in urine post-infection” value (EF2 ELISA) was determined as 5 days. Moreover, the “earliest detection in urine post-infection” value (EF3 ELISA) came out at 5 days. Under setting [1], the “FusC detection in sera” value is on record as “detectable” and the “FusC detection in urine” value is listed as “detectable”.

The values are drawn from patent US20140178902A1, “METHOD FOR DETECTING INFECTIONS” (priority 2011, published 2014).
